# Measured values from PubChem BioAssay AID493014 (National Center for Advancing Translational Sciences (NCATS), 2011).
# The other results are listed elsewhere or left out. These are further read-outs of the screen, such as a control signal, another cell line or another target. No call is given for them. Most of these compounds were active or inconclusive in the main read-out, so they are no random draw. Words in brackets tell the shape of the fitted curve; partial curves, single points and poor fits give uncertain potencies.
# Test: qHTS Assay to Find Inhibitors of Chronic Active B-Cell Receptor Signaling
# Conditions: ABC-DLBCL IkBa-CBG/CBR reporter, luminescence ratio (green luciferase fused to IkBa over red control in TMD8 lymphoma cells), 4 h
# Procedure, shortened: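 Doxycycline induced both beetle luciferases in TMD8 lymphoma cells; IKK-driven degradation limits the IkappaBalpha-fused green signal, while red luminescence normalises for cell number and nonspecific effects. Compounds tested up to 46 uM, 4 hrs.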
# [1] = measured here: CBR red luminescence, cell number
# [2] = measured here: IkBa-CBG green luminescence
smiles,measurement,setting,value
COc1cccc(NC(=O)C2C3C=CC(O3)C2C(=O)NCc2cccnc2)c1 (stereo not drawn),AC50,[1],"14.1 µM [falling, single point]"
CCc1nc(SCC(=O)NCc2ccco2)c2c3c(sc2n1)CCCC3,AC50,[1],"23.1 µM [rising, partial curve, poor fit]"
CCCNS(=O)(=O)c1ccc(OCC(=O)NCCCOC)cc1,AC50,[1],"29.1 µM [rising, single point]"
c1ccc(-c2noc(CN3CCN(c4ccccc4)CC3)n2)cc1,AC50,[1],"6.51 µM [rising, single point]"
Cc1nc2ccccc2n1/N=C/c1cccnc1,AC50,[1],"23.1 µM [falling, partial curve, poor fit]"
CC(=O)c1cnc2cc(-c3cccc(Br)c3)nn2c1C,AC50,[1],"14.1 µM [rising, partial curve, poor fit]"
Cc1ccccc1N=C1SC(CC(=O)Nc2ccc3ccccc3c2)C(=O)N1Cc1ccccn1 (stereo not drawn),AC50,[1],"18.4 µM [falling, partial curve, poor fit]"
CC1CC(=O)C2=C(C1)Nc1ncnn1C2c1ccccc1 (stereo not drawn),AC50,[1],"32.6 µM [falling, single point]"
COC(=O)Cc1ccc2c3ccccc3n(C)c2c1,AC50,[1],"14.1 µM [rising, single point]"
C=CCc1ccccc1OCC(O)CN1CCN(CCN2C(=O)c3cccc4cccc(c34)C2=O)CC1 (stereo not drawn),AC50,[1],"2.31 µM [rising, partial curve, poor fit]"
COc1ccc(CCNC(=O)c2ccc([N+](=O)[O-])cc2)cc1,AC50,[1],"35.5 µM [rising, single point]"
Cc1ccc(C2C3=C(Nc4[nH]n(-c5ccccc5)c(=O)c42)c2ccccc2C3=O)cc1 (stereo not drawn),AC50,[2],"23.1 µM [rising, partial curve, poor fit]"
COc1ccccc1CNc1ncc(-c2ccc(F)cc2)n1C,AC50,[1],"14.1 µM [falling, partial curve, poor fit]"
COc1ccc(C(Nc2cc(C)ccn2)c2ccc3ccc(C)nc3c2O)cc1 (stereo not drawn),AC50,[1],"12.6 µM [falling, partial curve]"
Cc1ccc(NC(=O)C(=O)NCC2CCCO2)cc1C (stereo not drawn),AC50,[1],"14.1 µM [falling, partial curve]"
Cc1ccc(C(=O)Nc2ccccc2C(=O)NC(Cc2ccccc2)C(=O)O)cc1 (stereo not drawn),AC50,[1],"15.8 µM [falling, single point]"
CCN(CCCNC(=O)c1cc2cc3ccc(OC)cc3nc2s1)c1ccccc1,AC50,[1],"18.4 µM [rising, single point]"
Cc1cc(C)n(C(=O)c2cc3sccc3[nH]2)n1,AC50,[1],"23.1 µM [rising, partial curve, poor fit]"
CCOc1cc(CNCc2ccccc2)ccc1OCc1ccc(Cl)cc1,AC50,[1],"7.08 µM [falling, partial curve, poor fit]"
Cc1ccc(Cl)cc1NC(=O)C1C2CCC(O2)C1C(=O)O (stereo not drawn),AC50,[1],"15.8 µM [rising, single point]"
O=C(NCCCc1ccccc1)c1ccc(CS(=O)Cc2ccc(Cl)cc2)o1 (stereo not drawn),AC50,[1],"20 µM [falling, single point]"
CNC(=O)c1c(NC(=O)c2cccc(C)c2)sc2c1CCC2,AC50,[1],"10 µM [falling, partial curve]"
Cc1ccc(NC(=O)CSc2nncs2)cc1Cl,AC50,[1],"5.8 µM [rising, single point]"
CC1(C)CC(CC(=O)O)(c2ccc(Cl)cc2)CCO1 (stereo not drawn),AC50,[1],"0.326 µM [falling, full curve, poor fit]"
CCCc1cc(C(=O)Nc2ccc(CC)cc2)no1,AC50,[1],"0.251 µM [rising, full curve, poor fit]"
COc1ccccc1C(CNC(=O)c1oc2ccccc2c1C)N1CCCC1 (stereo not drawn),AC50,[1],"11.6 µM [falling, partial curve]"
Cc1sc2ncnc(N3CCC(C(=O)N(CC(C)C)c4nc5ccccc5s4)CC3)c2c1C,AC50,[1],"25.9 µM [rising, single point]"
Cc1cc(C(F)F)n2nc(C(=O)Nc3ccccc3Br)nc2n1,AC50,[1],"2.59 µM [falling, partial curve, poor fit]"
COc1ccccc1NC(=O)CSc1nnc(-c2ccccn2)n1Cc1ccco1,AC50,[1],"35.5 µM [falling, single point]"
Cc1nnc(SCC(=O)N2CCN(S(=O)(=O)c3ccc(Cl)cc3)CC2)[nH]c1=O,AC50,[1],"0.1 µM [rising, full curve, poor fit]"
Cc1ccc2oc(-c3cccc(NC(=O)Cn4cnc5c(=O)n(C)c(=O)n(C)c54)c3)nc2c1,AC50,[1],"2.82 µM [rising, full curve]"
COc1ccc(NC(=O)CSc2nnc(N)n2CC(=O)Nc2ccc(OC)cc2)cc1,AC50,[1],"7.08 µM [rising, full curve]"
Cn1ccc(C(=O)OCC(=O)Nc2cccc3ccccc23)n1,AC50,[1],"11.2 µM [falling, partial curve]"
COC(=O)c1cc(Cn2nc(C(=O)O)c3ccccc3c2=O)oc1C,AC50,[1],"3.16 µM [falling, single point]"
C=CCn1nnc2sc3c(c2c1=O)CCC(C)C3 (stereo not drawn),AC50,[1],"29.1 µM [rising, single point]"
CCN(CC(=O)Nc1c(F)cccc1F)C(=O)c1ccc2c(c1)OCO2,AC50,[2],"32.6 µM [rising, partial curve, poor fit]"
Cc1cc(-c2nnc(CCC(=O)N(C)C(C)c3cccs3)o2)no1 (stereo not drawn),AC50,[1],"3.98 µM [rising, partial curve, poor fit]"
CN(CC(=O)Nc1ccccc1Cl)CC(=O)Nc1ccccc1[N+](=O)[O-],AC50,[1],"6.31 µM [rising, partial curve]"
O=C(NC(=S)NNC(=O)c1cccs1)c1ccco1,AC50,[1],"5.01 µM [falling, partial curve]"
CCCCCC(O)c1cccc(OCc2ccc3ccccc3n2)c1 (stereo not drawn),AC50,[1],"1.84 µM [rising, full curve, poor fit]"
Oc1cccc(C=NCc2ccccc2)c1O,AC50,[1],"0.651 µM [rising, partial curve]"
CCNS(=O)(=O)c1ccc(C(=O)OCC(=O)N2CCCc3ccccc32)cc1,AC50,[1],"10.3 µM [rising, partial curve]"
COCCn1nnnc1C(c1cc2c(C)cc(C)cc2[nH]c1=O)N1CCCCCC1 (stereo not drawn),AC50,[1],"11.6 µM [falling, partial curve, poor fit]"

# Part of the list above, set out differently.
smiles | measurement | setting | value
O=C(NCCCc1ccccc1)c1ccc(CS(=O)Cc2ccc(Cl)cc2)o1 (stereo not drawn) | AC50 | [1] | 20 µM [falling, single point]
CNC(=O)c1c(NC(=O)c2cccc(C)c2)sc2c1CCC2 | AC50 | [1] | 10 µM [falling, partial curve]
Cc1ccc(NC(=O)CSc2nncs2)cc1Cl | AC50 | [1] | 5.8 µM [rising, single point]
